According to PubChem BioAssay AID445 (National Center for Advancing Translational Sciences (NCATS), 2006):
Some of the results follow. The main result of the screen is listed elsewhere. These columns were measured beside it and carry no call. Compounds called inactive in the main read-out are mostly missing here. The note in brackets gives the kind of curve behind each potency; many fits are weak.

Assay: IkB Signaling
Conditions: ABC-DLBCL IkBa-CBG/CBR dual luciferase ratio (green luciferase fused to IkBa over red control in OCI-Ly3 lymphoma cells), 4 h; measured here: control luc red channel unless noted
Summary of the method: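 Luminescence ratio of IκBα-fused green versus native red beetle luciferase in OCI-Ly3 cells, 4 h post-doxycycline with compound; red signal alone, scaled from basal (0%) to zero light (-100%), flagged nonspecific or cytotoxic effects.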

| Structure (SMILES) | AC50 |
| --- | --- |
| CCc1c(C#N)c(SCc2c(C)noc2C)nc2c1C(=O)CC(C)(C)C2 | 25.1 µM [falling, partial curve] |
| Cc1sc2c(c1C)c(=O)n(-c1cccc(C(F)(F)F)c1)c(=O)n2Cc1ccc(F)cc1 | 0.0794 µM [rising, full curve, poor fit] |
| COc1ccccc1Cc1nc2ccccc2nc1SCC(=O)Nc1cccc(Cl)c1C | 6.31 µM [falling, partial curve] |
| COc1ccccc1N1CCN(C(=O)CCNS(=O)(=O)c2ccc3c(c2)CCN3C(=O)C2CC2)CC1 | 0.1 µM [falling, partial curve, poor fit] |
| COc1ccc(Cl)cc1NC(=O)CSC1=Nc2ccccc2C2=NC(CC(=O)NCc3ccc4c(c3)OCO4)C(=O)N12 (stereo unspecified) | 20 µM [falling, partial curve] |
| O=S(=O)(CCOc1ccccc1)c1nc2ccccc2[nH]1 | 5.01 µM [falling, partial curve] |
| Cc1c(O)c(Br)c(C)c(O)c1Br (tested in a mixture with another compound) | 3.98 µM [falling, single point] |
| COc1ccccc1C(=O)Nc1ccc2c(c1)nc(CN1CCCCC1)n2C | 15.8 µM [falling, partial curve] |
| CCn1c(=O)n(CC)c2cc(N3CCCCC3)c(NC(=O)Nc3ccccc3C(F)(F)F)cc21 | 39.8 µM [falling, single point] |
| Cc1cc(C)n2nc(SCC(=O)Nc3cccc(C(F)(F)F)c3)nc2n1 | 25.1 µM [falling, partial curve] |
| Cc1ccc(S(=O)(=O)Nc2nc3ccccc3nc2NCc2ccco2)cc1 | 0.0631 µM [falling, full curve] |
| COc1ccc(C(CC(=O)NCc2ccccc2)N2Cc3ccccc3C2=O)cc1 (stereo unspecified) | 20 µM [falling, single point] |
| CCC(Oc1ccc(F)cc1)C(=O)Nc1nc(-c2ccc(F)cc2)ns1 (stereo unspecified) | 6.31 µM [falling, single point] |
| CCOC(=O)c1ccc(NC(=O)CC2C(=O)N(c3cccc(OC)c3)C(=O)N2Cc2ccc(OC)cc2)cc1 (stereo unspecified) | 15.8 µM [falling, partial curve, poor fit] |
| COC(=O)CS(=O)(=O)c1nc2ccccc2nc1N1CCCCC1 | 39.8 µM [falling, single point] |
| CC(C)CCNC(=O)Nc1ccc2c(c1)N(C)C(=O)c1ccccc1S2 | 12.6 µM [falling, single point] |
| Cc1n[nH]c(C)c1S(=O)(=O)N(CC(=O)NC(C)c1ccccc1)c1ccc(C(C)C)cc1 (stereo unspecified) | 15.8 µM [falling, partial curve] |
| CS(=O)(=O)N1CCc2cc(C(=O)NCCc3ccccc3)ccc21 | 3.98 µM [rising, partial curve] |
| O=C(Nc1ccc2oc(Cc3ccc(Cl)cc3)nc2c1)c1cccnc1 | 12.6 µM [falling, partial curve] |
| CC1=Nc2cc(C(=O)NC3CCCC3)ccc2Sc2ccc(C)cc21 | 1 µM [rising, full curve] [measured here: IkB-luc green channel] |
| Cc1nn(-c2nc(-c3ccc(F)cc3)cc(C(F)(F)F)n2)c(C)c1Br | 12.6 µM [falling, partial curve] |

Some of these compounds in order of formula weight, rising.

| Structure (SMILES) | AC50 |
| --- | --- |
| Cc1n[nH]c(C)c1S(=O)(=O)N(CC(=O)NC(C)c1ccccc1)c1ccc(C(C)C)cc1 (stereo unspecified) | 15.8 µM [falling, partial curve] |
| CCn1c(=O)n(CC)c2cc(N3CCCCC3)c(NC(=O)Nc3ccccc3C(F)(F)F)cc21 | 39.8 µM [falling, single point] |
| CCOC(=O)c1ccc(NC(=O)CC2C(=O)N(c3cccc(OC)c3)C(=O)N2Cc2ccc(OC)cc2)cc1 (stereo unspecified) | 15.8 µM [falling, partial curve, poor fit] |

The listing continues:

| Structure (SMILES) | AC50 |
| --- | --- |
| CC1CCC(NC(=O)CC2Oc3ccccc3NC2=O)CC1 (stereo unspecified) | 10 µM [falling, partial curve] |
| Cn1c(SCC(=O)c2ccccc2)nnc1C1CC1 | 31.6 µM [rising, partial curve] [measured here: IkB-luc green channel] |
| CCC(=O)Oc1ccc(C/C(=N\O)c2ccc(O)cc2O)o1 | 15.8 µM [falling, partial curve] |
| Cc1nn(-c2ccc(F)cc2)c(-n2cccc2)c1C(=O)NCCCN1CCN(c2ccccc2F)CC1 | 15.8 µM [falling, partial curve] |
| CCOc1ccc(Oc2nc(NCC(C)C)nc(NC(C)(C)C)n2)nn1 | 3.98 µM [falling, partial curve] |
| COc1cccc(NC(=O)CCc2c(C)nc3c4cccnc4nn3c2C)c1 | 39.8 µM [falling, single point] |
| COc1ccccc1OCC(=O)N(Cc1ccc(Cl)cc1)CC1CCCO1 (stereo unspecified) | 25.1 µM [falling, single point] |
| CC(=O)c1ccc(NC(=O)CC2Nc3cccc4cccc(c34)NC2=O)cc1 (stereo unspecified) | 39.8 µM [falling, single point] |
| CSc1ccc(CCNC(=O)CCCn2nc(C)c3sc4ccccc4c3c2=O)cc1 | 7.94 µM [falling, partial curve] |
| CCc1cccc(NC(=O)CCS(=O)(=O)c2cc(Br)cc3c2N(C(C)=O)CC3)c1 | 0.1 µM [falling, full curve, poor fit] |
| O=C(CSc1nc2ccccc2nc1Cc1ccccc1)N1CCCCC1 | 31.6 µM [falling, partial curve] |
| O=C(NCc1ccccc1Cl)c1cc2ccccc2o1 | 20 µM [falling, single point] |
| COc1cc(-c2nc3ncccn3c2Nc2ccc(C)cc2C)ccc1O | 12.6 µM [falling, partial curve] |
| O=C(CSc1nnc(-c2cccnc2)n1Cc1ccco1)Nc1nc(-c2ccc(F)cc2)cs1 | 20 µM [falling, partial curve] |
| CCOc1ccccc1NC(=O)N1CCN(Cc2nc3ccc(C)cc3o2)CC1 | 5.01 µM [falling, full curve, poor fit] |
| COc1cc(C(=O)Nc2ccc(S(=O)(=O)N3CCCCC3C)cc2)cc(OC)c1OC (stereo unspecified) | 10 µM [falling, partial curve] |
| CCOc1ccccc1NC(=O)Cn1cnc2sc(C)c(S(=O)(=O)N3CCC(C)CC3)c2c1=O | 5.01 µM [falling, partial curve] |
| CCCCOc1cccc(C(=O)Nc2ccc3oc(-c4cccnc4)nc3c2)c1 | 12.6 µM [falling, partial curve] |
| COc1ccc(N2CCN(C(=O)CCc3c(C)nc4cc(-c5ccc(Cl)cc5)nn4c3C)CC2)cc1 | 0.0631 µM [falling, full curve] |
| Cc1nc2ccccc2c(=O)n1-c1ccc(NC(=O)c2ccc([N+](=O)[O-])cc2)cc1 | 3.98 µM [rising, single point] |
| CCOc1ccc(NCc2cccn2-c2nnc(N3CCC(C(=O)NCCc4ccc(OC)c(OC)c4)CC3)s2)cc1 | 25.1 µM [falling, single point] |

| Structure (SMILES) | AC50 |
| --- | --- |
| CCOC(=O)[C@H](CCc1ccccc1)N[C@@H](C)C(=O)N1[C@H](C(=O)O)C[C@H]2CCC[C@@H]21 | 2.51 µM [rising, partial curve] |
| Cc1ccccc1CNC(=O)C(=O)NCC(c1ccco1)S(=O)(=O)c1ccccc1 (stereo unspecified) | 5.01 µM [falling, partial curve, poor fit] |
| CCCS(=O)(=O)N1CCCC(C(=O)NCCCOC)C1 (stereo unspecified) | 39.8 µM [falling, partial curve, poor fit] |
| Cc1ccc2[nH]c(CSc3nnc(NC(=O)c4ccccc4C)s3)cc(=O)c2c1 | 25.1 µM [falling, partial curve] |
| COc1ccccc1N(CC(=O)Nc1ccc(C)c(Cl)c1)S(=O)(=O)c1ccc(C)cc1 | 10 µM [falling, partial curve] |
| C#CC(C)(CC)NC(=O)c1cc2c(n(-c3ccc(Cl)cc3)c1=O)CC(C)(C)CC2=O (stereo unspecified) | 31.6 µM [falling, single point] |
| CC(=O)N1CCc2cc(Br)cc(S(=O)(=O)N3CCN(c4cc(C)ccc4C)CC3)c21 | 20 µM [falling, partial curve] |
| CC(=O)N1c2ccccc2C(=O)C1N1CCN(c2cccc(C(F)(F)F)c2)CC1 (stereo unspecified) | 15.8 µM [falling, partial curve] |
| Cc1ccccc1OCC(=O)N(Cc1ccc(N(C)C)cc1)CC1CCCO1 (stereo unspecified) | 31.6 µM [falling, single point] |
| Cc1cccc(CNC(=O)CCCN2C(=O)CCn3nc(-c4cn(C)c5ccccc45)cc32)c1 | 25.1 µM [falling, single point] |
| CCN1CCN(c2c(S(=O)(=O)c3ccccc3)cnc3ccc(Cl)cc23)CC1 | 0.2 µM [falling, full curve, poor fit] |
| CCCc1cc(C(=O)Nc2cccc(Cl)c2)no1 | 6.31 µM [falling, partial curve] |
| Cn1nc(-c2ccccc2F)c2cc(C(=O)N3CCN(c4ccc(F)cc4)CC3)sc21 | 1.26 µM [falling, partial curve] |
| Cc1ccc(NC(=O)CSc2ncnc3c2sc2ccccc23)cc1C | 2.51 µM [rising, partial curve] |
| O=C(OCCOc1ccccc1Cl)c1ccc(-n2cnnn2)cc1 | 39.8 µM [falling, single point] |
| Cc1nn(C(=O)c2cccc(F)c2)c(C)c1S(=O)(=O)N1CCCCCC1 | 0.316 µM [falling, partial curve] |
| Cc1ccc(C)c(NC(=O)CSc2nc(=O)n(Cc3ccccn3)c3c2CCC3)c1 | 39.8 µM [falling, single point] |
| Cc1cccc(N2CCN(S(=O)(=O)c3ccc(F)c(C(=O)Nc4ccc(C(C)C)cc4)c3)CC2)c1C | 3.16 µM [falling, partial curve] |
| Cc1cc(C)cc(NS(=O)(=O)c2ccc3[nH]cc(C(=O)N4CCCCCC4)c(=O)c3c2)c1 | 12.6 µM [falling, single point] |
